Primary screen of a compound library

Protein sequences, listed by entry. Tags and fused reporters are not part of them.
UniProt P9WPC5, whole entry: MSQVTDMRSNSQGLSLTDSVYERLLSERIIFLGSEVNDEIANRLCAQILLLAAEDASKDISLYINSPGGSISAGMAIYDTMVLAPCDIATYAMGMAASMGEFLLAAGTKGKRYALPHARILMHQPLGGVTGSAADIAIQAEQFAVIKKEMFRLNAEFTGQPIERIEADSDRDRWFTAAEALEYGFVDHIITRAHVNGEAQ
UniProt P9WPC3, whole entry partner: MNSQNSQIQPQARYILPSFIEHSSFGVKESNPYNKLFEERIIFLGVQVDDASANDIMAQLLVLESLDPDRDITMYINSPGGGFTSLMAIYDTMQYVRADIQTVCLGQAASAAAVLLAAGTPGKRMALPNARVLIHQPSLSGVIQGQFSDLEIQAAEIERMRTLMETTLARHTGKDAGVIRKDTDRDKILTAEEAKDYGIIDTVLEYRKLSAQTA
UniProt P9WNZ1, whole entry: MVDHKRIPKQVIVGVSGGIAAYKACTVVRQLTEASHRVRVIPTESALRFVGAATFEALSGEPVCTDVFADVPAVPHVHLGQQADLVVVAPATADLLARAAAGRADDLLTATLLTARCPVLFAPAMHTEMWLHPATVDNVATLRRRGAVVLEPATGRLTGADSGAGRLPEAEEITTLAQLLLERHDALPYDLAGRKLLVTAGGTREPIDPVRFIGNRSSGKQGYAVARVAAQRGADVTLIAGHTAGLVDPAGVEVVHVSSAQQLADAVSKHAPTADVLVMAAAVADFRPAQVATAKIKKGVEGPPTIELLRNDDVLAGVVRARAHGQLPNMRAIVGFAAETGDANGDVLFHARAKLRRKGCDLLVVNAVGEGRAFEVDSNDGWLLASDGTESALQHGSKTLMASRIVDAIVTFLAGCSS

From ChEMBL document CHEMBL3988442, “University of Dundee, Small-Polar-MMV Screening Library” (2021).

A: 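Protease assay of ClpP1P2, read by the AMC dye that it sets free. Target: ClpP1P2, Mycobacterium tuberculosis (UniProt P9WPC5 and UniProt P9WPC3). Tested at 50 µM. Direction is inferred from only a few compounds that gave an IC50; most scored high, so higher reads as stronger inhibition. Most other retested compounds had strongly negative values. About 69,000 compounds were tested under these conditions; 0.015% (about 10) showed 50% or more at least once.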
B: 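Enzyme assay of CoaBC with a phosphate dye (Biomol Green) read at 650 nm. Target: Coenzyme A biosynthesis protein CoaBC, Mycobacterium tuberculosis (UniProt P9WNZ1). Concentration: 30 µM. Direction is inferred from only a few compounds that gave an IC50; most scored high, so higher reads as stronger inhibition. Most strong results did not repeat in a second test. Size under these conditions: about 67,000 compounds, about 40 of them at 50% or above in at least one test.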

Results are given as percent effect.
How 0% and 100% were set is not recorded. Most values in the screen are low, and negative values occur.
Compounds were drawn at random from those tested, without regard to their results.
Two or more numbers in one place are separate tests of the same structure; such repeats can differ widely.

CCc1nc(CNc2ccc(C(=O)NCc3ccco3)cc2C)no1 read A: -3.749%; B: 3.89%. CC(=O)N(C)CCCc1cc(-c2ccccc2)no1 gave A: -23.89%; B: 3.861%. With CO[C@@H]1CN(c2ccccc2)S(=O)(=O)[C@@]12CCN(Cc1cncs1)C2 the screen gave A: -10.26%; B: 1.695%. COc1ccc2c(c1)c(-c1nc(C)ncc1CN)cn2C gave A: 2.133%; B: 9.466%.

For CCCOc1cccc(C(=O)Oc2cc(=O)n3cccc(C)c3n2)c1 the result was A: -1.008%; B: 3.291%. O=C(CN(C1=NCCCCC1)c1ccc(Cl)cc1)c1ccccc1 read A: -16.24%; B: 5.063%. Result for COc1cc(N2C[C@H]3CCC[C@@H](CN(C)C)[C@H]3C2)ncn1 was A: 5.039%; B: -9.939%. CC(=O)N1CC2(CCCN(Cc3ccc(Cl)cc3)C2)Cc2ccccc21 (stereo unspecified) read A: -9.312%; B: -5%.

With CNS(=O)(=O)c1ccc(C(=O)Nc2ccc3c(c2)C(=O)NC3)cc1 the screen gave A: -3.297%; B: 1.394%. COc1ccc(CN(C)[C@@H]2CN(C(=O)c3ccccc3)C[C@H]2O)cc1 gave A: -9.847%; B: 0%. Cc1nn(C)c(N(C)C)c1CNCc1cccnc1-n1cncn1 read A: 3.2%; B: -3.655%. CC(Cn1cc(Br)cn1)C(=O)Nc1ccn(C)n1 (stereo unspecified) gave A: -11.86%; B: 7.233%.

For O=S(=O)(NCCn1ccc(-c2cccs2)n1)C1CC1 the result was A: -20.31%; B: 3.89%. CCc1cc(N(C)Cc2ccncn2)n2nccc2n1 read A: -3.331%; B: -7.576%. O=C1CCC2(CCCN(C(=O)c3cscn3)C2)CN1CCc1c[nH]cn1 (stereo unspecified) read A: -5.525%; B: 0.4545%. CCc1noc(CN2CCN(C(=O)C3CC3)CC2)n1 read A: -11.91%; B: 2.625%.

With CCN(CC1CN(Cc2nccn2CC)CCO1)c1cccnn1 (stereo unspecified) the screen gave A: 3.257%; B: -31.82%. Cc1csc(C2(NCCC(=O)N3CCOCC3)CCCC2)n1 gave A: 9.723%; B: 2.215%. Result for NC(=O)c1ccc(NC(=O)Cn2cc(-c3ccccc3)ncc2=O)cc1 was A: -11.92%; B: -17.11%. Result for CCn1nnc2cc(C(=O)N3CCCC3Cn3cc(C)cn3)ccc21 (stereo unspecified) was A: -5.339%; B: -1.542%.

With CC(C)c1noc(CNC2CCCN(Cc3noc(C4CC4)n3)C2)n1 (stereo unspecified) the screen gave A: 19.77%; B: 3.674%. For CCc1nc(CN(C)CC(=O)N(C)C2CC2)cs1 the result was A: 5.549%; B: 7.385%. COC(=O)c1ccc(N2CCN(C(=O)c3ccc(=O)n(C)c3)CC2)cc1 read A: -8.422%; B: -10.89%. CN(Cc1ccco1)C[C@@H]1OC[C@H]2CN(Cc3nccs3)CC[C@H]21 gave A: 5.966%; B: -0.8157%.

For OCCN(Cc1nc(-c2ccc3c(c2)OCO3)no1)CC1CC1 the result was A: -3.044%; B: -6.452%. Result for Cc1ccc(CN2CC[C@H]3NC(=O)CC[C@@H]32)o1 was A: 8.063%; B: 3.218%. CN1CCC(NC(=O)c2cc(F)cc(Cl)c2O)C1=O (stereo unspecified) read A: -567.5%; B: 7.12%. CC1CCN(CCCNS(=O)(=O)c2cccc(F)c2)CC1 read A: 10.14%; B: -4.091%.

With Cc1cc(C)nc(C2CCN(C(=O)CCn3ncc4ccccc43)C2)n1 (stereo unspecified) the screen gave A: -5.702%; B: -2.101%. CCN(CC)C(=O)c1ccc(NC(=O)CNc2ccc(Br)cc2F)cc1 read A: -3.082%; B: 2.294%. For CNC(=O)c1ccc(-c2ccc(CNC(=O)COC)cc2)nc1C the result was A: -15.95%; B: 2.427%. Result for Cc1nn(-c2ccccc2)cc1C(=O)N1CCCC1c1cnn(C)c1 (stereo unspecified) was A: -13.53%; B: 33.11% & -7.732%.

O=C(c1ccnc(C2CCNCC2)c1)N1CCCC1 read A: -1.952%; B: 11.19%.

Once more, the final 3:

| compound | A | B |
|---|---|---|
| `CNC(=O)c1ccc(-c2ccc(CNC(=O)COC)cc2)nc1C` | -15.95 | 2.427 |
| `Cc1nn(-c2ccccc2)cc1C(=O)N1CCCC1c1cnn(C)c1` (stereo unspecified) | -13.53 | 33.11 & -7.732 |
| `O=C(c1ccnc(C2CCNCC2)c1)N1CCCC1` | -1.952 | 11.19 |